PubChem BioAssay AID504793 – Drosophila RNAi Screening Center | 2011
In all, the deposit lists about 23,000 reagents; below is a random part of those that have a named target and a result. Of all reagents, 62 (0.27%) are marked active. 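Calls come from follow-up tests whose scores are not deposited, so confirmed genes may have low counts here; counts are not normalised per plate.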 Raw values vary from plate to plate and are shown uncorrected. Reagents against one gene are numbered here.

- Screen: 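Genes required for cells to halt at G2/M after double-strand DNA breaks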 (primary screen)
- Cells: Drosophila S2R+ cells
- Reagents: long dsRNA against Drosophila genes, about 0.25 µg dsRNA per well
- Timing: 4 days of dsRNA, then 4 hours of drug before read-out
- Treatment: doxorubicin 0.5 µM for 4 hours to cause double-strand breaks, in cells also given a low, harmless dose of dsRNA against nbs to sensitise the assay
- Measured: 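Per-well count of mitotic cells stained for phospho-histone H3 after doxorubicin exposure, used as mitotic index; counts are raw and not normalised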
- Reading the numbers: mitotic cells: higher = more cells in mitosis, weaker G2 arrest
- Rule for the call: 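a call needs confirmation in secondary tests, with other dsRNAs and a check of mitotic timing without damage, not just a high primary count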
- Calls: active = confirmed in follow-up tests; inactive = not confirmed

What did the screen give for CG18765 (GeneID 59149)?
mitotic cells, replicate 1: 6; call: inactive

With Or59c (GeneID 37716), how do the results read?
mitotic cells, replicate 1: 4; call: inactive

How did the screen score mRpL52 (GeneID 35711)?
mitotic cells, replicate 1: 10; call: inactive

For SCCRO (GeneID 39685) #1, what does the deposit list?
mitotic cells, replicate 1: 5; call: inactive

What did the screen give for SCCRO (GeneID 39685) #2?
mitotic cells, replicate 1: 11; call: inactive

How did the screen score CG4022 (GeneID 39082) #1?
mitotic cells, replicate 1: 4; call: inactive

Which result is listed for CG4022 (GeneID 39082) #2?
mitotic cells, replicate 1: 7; call: inactive

Which result is listed for Dnaaf5 (GeneID 318680)?
mitotic cells, replicate 1: 3; call: inactive

Which result is listed for JMJD7 (GeneID 39514)?
mitotic cells, replicate 1: 5; call: inactive

For fz2 (GeneID 40090) #1, how do the results read?
mitotic cells, replicate 2: 12; call: inactive

For fz2 (GeneID 40090) #2, what was measured?
mitotic cells, replicate 1: 3; call: inactive

With sug (GeneID 36424) #1, what was measured?
mitotic cells, replicate 1: 7; call: inactive

With sug (GeneID 36424) #2, how do the results read?
mitotic cells, replicate 1: 3; call: inactive

For Cpr47Ec (GeneID 36191), what does the deposit list?
mitotic cells, replicate 1: 10; call: inactive
